Paper doi:10.1101/2021.01.21.427698
Results are given in words; binding and its absence hold for the method and conditions named. Some entries that bind do so weakly or less than the wild type. Tags and fused reporters may be left off the sequences shown. One block for each binder: values may come before it.

Columns and labels:
Assay in all cases: two-tag affinity co-purification of co-expressed proteins
[1] = target: T1, human SEPT9_i3 with a noncleavable C-terminal Strep-tag-II (as in the mammalian octamers-9_i3) (human) (UniProt Q9UHD8)
T1 sequence: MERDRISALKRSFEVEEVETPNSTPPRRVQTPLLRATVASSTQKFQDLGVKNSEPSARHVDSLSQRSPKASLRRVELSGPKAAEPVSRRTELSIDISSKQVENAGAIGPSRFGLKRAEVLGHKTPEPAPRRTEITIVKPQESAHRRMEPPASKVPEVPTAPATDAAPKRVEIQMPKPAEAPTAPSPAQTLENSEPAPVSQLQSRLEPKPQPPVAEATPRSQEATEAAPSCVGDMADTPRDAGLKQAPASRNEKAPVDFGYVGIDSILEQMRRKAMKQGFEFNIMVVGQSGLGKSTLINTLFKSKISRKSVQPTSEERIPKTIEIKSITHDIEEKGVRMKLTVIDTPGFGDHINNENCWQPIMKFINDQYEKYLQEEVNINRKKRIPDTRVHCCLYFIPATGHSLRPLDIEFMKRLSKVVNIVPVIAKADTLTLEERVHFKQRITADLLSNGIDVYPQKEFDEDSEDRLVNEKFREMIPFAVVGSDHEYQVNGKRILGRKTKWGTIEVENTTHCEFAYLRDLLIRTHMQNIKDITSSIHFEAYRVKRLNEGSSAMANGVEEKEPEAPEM

[2] = target: T2, mouse SEPT2 with a TEV-cleavable N-terminal His6-tag (mouse) (UniProt P42208)
T2 sequence: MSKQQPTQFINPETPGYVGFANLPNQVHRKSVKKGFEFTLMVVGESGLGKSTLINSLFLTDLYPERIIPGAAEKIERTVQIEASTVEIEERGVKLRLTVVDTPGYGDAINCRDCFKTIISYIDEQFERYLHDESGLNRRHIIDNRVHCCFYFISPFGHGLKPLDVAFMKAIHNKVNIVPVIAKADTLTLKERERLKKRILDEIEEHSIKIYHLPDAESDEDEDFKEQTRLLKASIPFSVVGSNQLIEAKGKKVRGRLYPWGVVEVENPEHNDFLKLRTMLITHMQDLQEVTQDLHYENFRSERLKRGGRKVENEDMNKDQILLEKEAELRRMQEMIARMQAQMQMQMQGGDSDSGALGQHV

[3] = target: T3, human SEPT2 with a TEV-cleavable N-terminal His6-tag and its C-terminus fused to msfGFP (human), Q15019; settings: remark: other sources report otherwise
T3 chain: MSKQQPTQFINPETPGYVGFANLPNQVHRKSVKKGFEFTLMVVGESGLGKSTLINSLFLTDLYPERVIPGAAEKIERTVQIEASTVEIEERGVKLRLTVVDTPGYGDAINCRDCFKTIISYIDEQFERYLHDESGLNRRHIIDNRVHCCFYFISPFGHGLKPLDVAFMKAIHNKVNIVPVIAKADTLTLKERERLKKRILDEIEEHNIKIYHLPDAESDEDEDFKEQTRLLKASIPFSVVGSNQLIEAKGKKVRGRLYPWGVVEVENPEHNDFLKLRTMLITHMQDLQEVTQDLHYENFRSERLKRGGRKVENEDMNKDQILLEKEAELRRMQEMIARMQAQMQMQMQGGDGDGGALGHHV

[4] = target: T4, human SEPT2 with a TEV-cleavable N-terminal His6-tag (human), Q15019; settings: remark: other sources report otherwise
T4 chain: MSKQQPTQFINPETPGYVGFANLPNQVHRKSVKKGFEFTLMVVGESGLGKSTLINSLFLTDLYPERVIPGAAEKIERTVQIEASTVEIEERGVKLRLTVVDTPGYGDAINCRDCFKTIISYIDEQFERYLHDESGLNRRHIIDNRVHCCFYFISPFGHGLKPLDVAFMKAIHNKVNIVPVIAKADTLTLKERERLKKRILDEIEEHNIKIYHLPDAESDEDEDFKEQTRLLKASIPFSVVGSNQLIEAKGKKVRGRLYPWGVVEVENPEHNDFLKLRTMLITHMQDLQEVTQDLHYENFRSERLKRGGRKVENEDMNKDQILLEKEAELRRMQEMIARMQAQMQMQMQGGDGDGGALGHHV

[5] = target: T5, human SEPT9_i3 with a TEV-cleavable C-terminal Strep-tag-II (human) (UniProt Q9UHD8)
T5 sequence: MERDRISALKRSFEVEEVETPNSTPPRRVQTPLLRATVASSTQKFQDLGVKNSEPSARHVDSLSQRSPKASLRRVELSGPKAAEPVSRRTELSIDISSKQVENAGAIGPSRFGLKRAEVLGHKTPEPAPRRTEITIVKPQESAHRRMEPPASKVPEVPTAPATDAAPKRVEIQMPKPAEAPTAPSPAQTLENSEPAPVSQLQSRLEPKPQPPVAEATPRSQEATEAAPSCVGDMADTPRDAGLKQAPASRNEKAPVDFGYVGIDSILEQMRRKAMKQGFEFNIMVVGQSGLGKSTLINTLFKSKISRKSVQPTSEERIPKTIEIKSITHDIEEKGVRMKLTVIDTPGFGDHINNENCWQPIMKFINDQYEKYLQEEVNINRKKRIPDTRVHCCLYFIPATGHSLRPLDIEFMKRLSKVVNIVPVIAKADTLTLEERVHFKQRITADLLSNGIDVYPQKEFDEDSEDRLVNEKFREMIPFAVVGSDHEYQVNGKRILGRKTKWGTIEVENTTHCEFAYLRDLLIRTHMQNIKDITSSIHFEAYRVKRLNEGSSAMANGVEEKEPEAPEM

[6] = target: T6, human SEPT9_i1 with a TEV-cleavable C-terminal Strep-tag-II (human) (UniProt Q9UHD8)
T6 sequence: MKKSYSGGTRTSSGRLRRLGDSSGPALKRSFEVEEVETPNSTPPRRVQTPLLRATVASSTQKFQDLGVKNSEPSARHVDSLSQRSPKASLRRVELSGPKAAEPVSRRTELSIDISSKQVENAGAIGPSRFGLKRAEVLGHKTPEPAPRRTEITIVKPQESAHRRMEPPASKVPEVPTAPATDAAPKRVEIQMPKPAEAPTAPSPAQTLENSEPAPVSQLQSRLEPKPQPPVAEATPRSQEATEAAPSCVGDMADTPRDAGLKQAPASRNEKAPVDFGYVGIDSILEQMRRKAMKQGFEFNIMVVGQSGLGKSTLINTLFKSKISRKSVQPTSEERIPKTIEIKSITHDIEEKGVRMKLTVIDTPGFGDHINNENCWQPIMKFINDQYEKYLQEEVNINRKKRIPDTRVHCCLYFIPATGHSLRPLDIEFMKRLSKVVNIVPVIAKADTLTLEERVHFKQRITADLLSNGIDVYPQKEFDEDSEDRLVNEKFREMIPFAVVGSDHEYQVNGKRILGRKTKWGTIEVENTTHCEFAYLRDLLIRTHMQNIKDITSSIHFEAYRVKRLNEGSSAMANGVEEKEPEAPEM

binding [1]: binds
binding [2]: binds
B1: human SEPT7ΔN19 (untagged, as in the mammalian octamers-9_i3) (domain or fragment, UniProt Q16181 20-437)
chain: MVAQQKNLEGYVGFANLPNQVYRKSVKRGFEFTLMVVGESGLGKSTLINSLFLTDLYSPEYPGPSHRIKKTVQVEQSKVLIKEGGVQLLLTIVDTPGFGDAVDNSNCWQPVIDYIDSKFEDYLNAESRVNRRQMPDNRVQCCLYFIAPSGHGLKPLDIEFMKRLHEKVNIIPLIAKADTLTPEECQQFKKQIMKEIQEHKIKIYEFPETDDEEENKLVKKIKDRLPLAVVGSNTIIEVNGKRVRGRQYPWGVAEVENGEHCDFTILRNMLIRTHMQDLKDVTNNVHYENYRSRKLAAVTYNGVDNNKNKGQLTKSPLAQMEEERREHVAKMKKMEMEMEQVFEMKVKEKVQKLKDSEAELQRRHEQMKKNLEAQHKELEEKRRQFEDEKANWEAQQRILEQQNSSRTLEKNKKKGKIF

binding [3]: binds
binding [4]: binds
B2: full-length human SEPT7 (untagged, as in the octamers), Q16181 1-437 (natural protein)
chain: MSVSARSAAAEERSVNSSTMVAQQKNLEGYVGFANLPNQVYRKSVKRGFEFTLMVVGESGLGKSTLINSLFLTDLYSPEYPGPSHRIKKTVQVEQSKVLIKEGGVQLLLTIVDTPGFGDAVDNSNCWQPVIDYIDSKFEDYLNAESRVNRRQMPDNRVQCCLYFIAPSGHGLKPLDIEFMKRLHEKVNIIPLIAKADTLTPEECQQFKKQIMKEIQEHKIKIYEFPETDDEEENKLVKKIKDRLPLAVVGSNTIIEVNGKRVRGRQYPWGVAEVENGEHCDFTILRNMLIRTHMQDLKDVTNNVHYENYRSRKLAAVTYNGVDNNKNKGQLTKSPLAQMEEERREHVAKMKKMEMEMEQVFEMKVKEKVQKLKDSEAELQRRHEQMKKNLEAQHKELEEKRRQFEDEKANWEAQQRILEQQNSSRTLEKNKKKGKIF

binding [5]: binds
binding [6]: binds
B3: human SEPT2 with a TEV-cleavable N-terminal His6-tag and its C-terminus fused to msfGFP (protein, UniProt Q15019 1-361)
chain: MSKQQPTQFINPETPGYVGFANLPNQVHRKSVKKGFEFTLMVVGESGLGKSTLINSLFLTDLYPERVIPGAAEKIERTVQIEASTVEIEERGVKLRLTVVDTPGYGDAINCRDCFKTIISYIDEQFERYLHDESGLNRRHIIDNRVHCCFYFISPFGHGLKPLDVAFMKAIHNKVNIVPVIAKADTLTLKERERLKKRILDEIEEHNIKIYHLPDAESDEDEDFKEQTRLLKASIPFSVVGSNQLIEAKGKKVRGRLYPWGVVEVENPEHNDFLKLRTMLITHMQDLQEVTQDLHYENFRSERLKRGGRKVENEDMNKDQILLEKEAELRRMQEMIARMQAQMQMQMQGGDGDGGALGHHV
